# Results are given in words; binding and its absence hold for the method and conditions named. In cells and extracts the contact can be indirect. Some entries that bind do so weakly or less than the wild type. Sequences can lack the tags named with a protein.
# The chains behind the UniProt entries cited, without tags or fusion partners. Residues count along the entry.
# UniProt Q15116, residues 25-288: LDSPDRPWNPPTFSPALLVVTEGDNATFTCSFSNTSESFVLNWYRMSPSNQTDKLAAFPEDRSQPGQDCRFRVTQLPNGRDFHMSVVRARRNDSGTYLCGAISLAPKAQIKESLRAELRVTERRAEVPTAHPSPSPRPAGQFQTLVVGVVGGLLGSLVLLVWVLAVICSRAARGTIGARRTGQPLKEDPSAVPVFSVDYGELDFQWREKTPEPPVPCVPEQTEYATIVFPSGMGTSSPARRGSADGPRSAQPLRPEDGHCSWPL
# B1: FBXO38-HA (endogenous FBXO38 in FBXO38-HA knockin Jurkat cells) (protein, UniProt Q6PIJ6 1-1188)
# chain: MGPRKKSVKTCIMNNEIPEEMTADETKDYMNQLSHEVLCHIFRYLPLQDIMCMECLSRKLKEAVTLYLRVVRVVDLCAGRWWEYMPSGFTDASFLTLLKKMPDVEQLYGLHPRYLERRRVRGHEAFSIPGVLEALQACPNLVGVETSHLELVESIWTYMPHVHILGKFRNRNGAFPIPPENKLKIPIGAKIQTLHLVGVNVPEIPCIPMLRHLYMKWVRLTKPQPFKDFLCISLRTFVMRNCAGPTNSLKYVPLVTGLASARNLEHLEMVRVPFLGGLIQHVVEDSWRSGGFRNLHTIVLGACKNALEVDLGYLIITAARRLHEVRIQPSLTKDGVFSALKMAELEFPQFETLHLGYVDEFLLQSRMANADLVKYGLADVVENPGIITDIGMKAVNEVFSCIKYLAIYNCPHLHNPYNWISDHSRWTRLVDINLVRCHALKLDSFGQFIELLPSLEFISLDQMFREPPKGCARVGLSAGTGIGVSSALVSNQNSNNDDNNAQNNNANIHDNNHHHPDDSDEENDFRQDLQPGEQQFAADALNEMEDIVQEDGEVVAESGNNTPAHSQAIIPVDVDEEQAGPSGLQRVVKPTSITVHDSESDDEEDSLELQEVWIPKNGTRRYSEREEKTGESVQSRELSVSGKGKTPLRKRYNSHQMGQSKQFPLEESSCEKGCQVTSEQIKADMKAARDIPEKKKNKDVYPSCSSTTASTVGNSSSHNTASQSPDFVRTVNSGGSSEPSPTEVDVSRQCACSPGGSEDSEAMEEGDAESSVCPRCCCHRPQESQRRTSRCSDEERPSTSRACVVNGPDGTRSAFSFRTLPQGGSSGPAHDERTNGSGSGATGEDRRGSSQPESCDVQSNEDYPRRPLTRARSRLSHVLLVSESEVAKTKPRHAMKRKRTADKSTSTSDPVIEDDHVQVLVLKSKNLVGVTMTNCGITDLVLKDCPKMMFIHATRCRVLKHLKVENAPIVNRFDYAQCKKLNMDQVLDQILRMPPERNRIIYLRPMQQVDTLTLEQKLFSGPYPYHICIIHEFSNPPNVRNKVRIRSWMDTIANINQELIKYEFFPEATRSEEDLKKYPKYPWGREIYTLEGVVDGAPYSMISDFPWLRSLRAAEPNSFARYDFEDDEESTIYAPRRKGQLSADICMETIGEEISEMRQMKKGVFQRVVAIFIHYCDVNGEPVEDDYI
# Molecular target: PD-1 (endogenous, in Jurkat cells) (human (endogenous in Jurkat)) (UniProt Q15116)
# Assay: proximity ligation; endogenous FBXO38-HA and endogenous PD-1 in FBXO38-HA knockin Jurkat cells; signal seen in the cytoplasm; representative image and PLA signal quantification
binder,measurement,value
B1,binding,binds
